We go through 60 compounds from PubChem BioAssay AID2685 (National Center for Advancing Translational Sciences (NCATS), 2010).

Some of the results follow. The main result of the screen is listed elsewhere. These columns were measured beside it and carry no call. Most of these compounds were active or inconclusive in the main read-out, so they are no random draw. The note in brackets gives the kind of curve behind each potency; many fits are weak.

The nature of the experiment: qHTS Assay for Lipid Storage Modulators in Drosophila S3 Cells.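 On cell number change: cells counted by Cell Tracker Red CMTPX staining in the red channel.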 The note with it: BODIPY lipid droplet fluorescence, 18-24 h; for cell number change: measured here: cell count max response, cells fed with added oleic acid. The essentials: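 Laser-scanning cytometry quantifies lipid droplet accumulation (500–530 nm total intensity; droplet/cell object ratio) in oleic acid-fed (400 uM added) Drosophila S3 cells treated with a concentration series. 20 uM Triacsin C defined 100% inhibition.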
(In qHTS, concentration-response curves come from the screen itself.)

Where [1] appears, read: measured here: cell number channel AC50, cells fed with added oleic acid.
Setting [2] is: measured here: lipid fluorescence (Fed channel) AC50, cells fed with added oleic acid.

In general, AC50 refers to the concentration at which the activity in the assay is half-maximal. Lower therefore signals activity at low concentration. For `N#CC1=C(N)NC(SCc2ccc(F)cc2)=C(C#N)C12CCCCC2`, the AC50 was 0.231 µM [rising, full curve] under setting [1] and 0.259 µM [rising, full curve] under setting [2].

Take `CCCCC(=O)Nc1sc2c(c1C(=O)OCC)CCC(C=O)=C2Cl`: the cell number change is 56.5%. For the same compound, the AC50 under setting [1] is 29.1 µM [rising, single point].

Consider `O=S(=O)(c1cc(-c2nc3ccccc3s2)ccc1Cl)N1CCOCC1`, for which the cell number change is -15.4%. In addition, the AC50 under setting [2] is 6.51 µM [falling, single point].

Turning to `COc1ccc(NC(=O)NC(C)(C(F)(F)F)C(F)(F)F)cc1`, under setting [2], the AC50 was 29.1 µM [rising, single point].

Consider `COc1ccc(S(=O)(=O)NNC(=O)C2CC(c3cccnc3)=NO2)cc1` (stereo unspecified), for which the cell number change is -3%.

With `COc1ccccc1NC(=O)c1cc2ccccc2o/c1=N\O`, the cell number change is -24%. Under setting [2], the AC50 was 2.91 µM [falling, partial curve].

With `COC(=O)/C=C/S(=O)(=O)c1ccc(NC(C)=O)cc1`, the cell number change is -58.7%. Under setting [1], the AC50 was 5.17 µM [falling, full curve]. Moreover, the AC50 under setting [2] is 9.2 µM [falling, partial curve].

On to `CC(C)(O)CCC(C)(C)O`, for which the cell number change was -39.8%. In addition, under setting [1], the AC50 is 3.66 µM [falling, single point]. Further, the AC50 under setting [2] was 5.17 µM [falling, single point].

Regarding `CCN(CC)C(=O)COc1ccc(/C(C)=N/NC(=O)c2ccccc2O)cc1`, the cell number change was found to be 21.8%. Besides, under setting [2], the AC50 was 6.51 µM [rising, single point].

As to `O=C(C1CCCN1S(=O)(=O)c1ccc(Cl)cc1)N1CCOCC1` (stereo unspecified), the cell number change was determined as 3.12%. Further, under setting [2], the AC50 was 0.13 µM [falling, full curve, poor fit].

As for `Cc1ccc2occ(C(c3nnnn3C3CCCC3)N3CCN(C(=O)c4ccco4)CC3)c(=O)c2c1` (stereo unspecified), the cell number change was -12.4%. Moreover, the AC50 under setting [2] was 0.0146 µM [falling, full curve, poor fit].

As to `COc1cccc(C(=O)n2c(SC)nc3cc4c(cc32)OCCO4)c1`, the cell number change came out at 177%. Besides, the AC50 under setting [1] is 29.1 µM [rising, single point].

`CC1=C(C(=O)N2CCN(c3cc(C)ccc3C)CC2)C2(CCCCC2)OC1=O`: the cell number change is 4.57%. Further, the AC50 under setting [2] was 2.06 µM [rising, full curve].

As to `CCOC(=O)C(NC(=O)c1ccc(OC)cc1)(N1CCOCC1)C(F)(F)F` (stereo unspecified), the cell number change is -45%. Moreover, under setting [1], the AC50 was 3.66 µM [falling, full curve]. For the same compound, the half-maximal activity concentration (AC50) under setting [2] is 23.1 µM [falling, partial curve].

For the compound `CC(C)(C)c1ccc(/C=C2\SC(=O)N(CCNC(=O)c3cccc(S(=O)(=O)N4CCOCC4)c3)C2=O)cc1`, the cell number change is -32.6%. Moreover, the AC50 under setting [1] was 20.6 µM [falling, single point]. Besides, the AC50 under setting [2] is 11.6 µM [falling, partial curve].

For the compound `CCCC[C@]12Cc3cc(OC)c(OC)cc3C(O1)c1c(cc(-c3ccccc3)oc1=O)O2`, the cell number change worked out at 2.27%. Further, the AC50 under setting [2] was 0.211 µM [rising, partial curve, poor fit].

As for `O=C1CC(N2CCC(O)(c3ccc(Br)cc3)CC2)C(=O)N1c1ccc(Cl)cc1` (stereo unspecified), the AC50 under setting [1] is 0.58 µM [falling, single point].

As to `CCC/C(C)=C/c1ccc(CC)cn1`, the cell number change was 11%. In addition, the AC50 under setting [2] is 0.00461 µM [falling, full curve, poor fit].

As for `CC1CCN(C(=O)CSc2nc(N)c3c4c(sc3n2)CN(C)CC4)CC1`, the cell number change is -2.97%.

Regarding `C=CCNc1sc(C(=O)c2ccccc2)c(N)c1C#N`, the cell number change was 21.9%. Also, the AC50 under setting [1] was 4.11 µM [rising, full curve, poor fit].

For the compound `CCOc1ccc(N2CC(C(=O)Nc3ccccc3C(=O)N3CCOCC3)CC2=O)cc1` (stereo unspecified), the cell number change was 22.3%.

Take `CCCN(CC(=O)Nc1ccccc1C)C(=O)CCNC(=O)c1ccccc1Cl`: the AC50 was 0.517 µM [rising, full curve] under setting [1] and 0.82 µM [rising, full curve] under setting [2].

Consider `COc1cc(OC)cc(C(=O)NCCS(=O)(=O)N2CCN(Cc3ccccc3)CC2)c1`, for which the cell number change was -18.1%. Besides, the concentration at half-maximal activity (AC50) under setting [1] is 2.91 µM [falling, partial curve]. Further, the AC50 under setting [2] is 3.26 µM [falling, partial curve].

On to `COc1ccc(OC)c(C(=O)CCCC(=O)c2cc(OC)ccc2OC)c1`, for which the cell number change is -25.8%. The AC50 under setting [2] is 9.2 µM [falling, partial curve].

In the case of `COc1ccc(-c2noc(CN(C)C(=O)c3ccc4c(c3)OCO4)n2)cc1`, the cell number change is -6.67%. The concentration at half-maximal activity (AC50) under setting [2] was 29.1 µM [rising, single point].

On to `COc1cnc(-c2ccccc2)nc1Oc1ccccc1C`, for which the AC50 under setting [2] is 25.9 µM [falling, single point].

On to `Cc1ccc(Cn2ccc(NC(=O)CCSc3nc(-c4ccco4)cc(C(F)(F)F)n3)n2)cc1`, for which the cell number change is -21.5%. Also, the AC50 under setting [2] was 3.66 µM [rising, partial curve].

Consider `COCCCNC(=O)c1cn(C)c(=O)c2c1c1ccccc1n2C`, for which the cell number change was determined as 4.26%. The AC50 under setting [2] was 0.184 µM [rising, full curve, poor fit].

As for `COc1c(C)cc(C(=O)C2CCCN(C(=O)c3cc(C)on3)C2)cc1C` (stereo unspecified), the cell number change is -11.8%. Moreover, the AC50 under setting [2] was 13 µM [rising, partial curve].

Turning to `Cc1nc(N)sc1C(=O)N/N=C/c1ccccc1[N+](=O)[O-]`, the cell number change was determined as 78.1%. Besides, the AC50 under setting [1] was 29.1 µM [rising, single point].

For the compound `CC(C)c1cc(C(=O)NNC(=S)NC2CCCCC2)cs1`, the cell number change was found to be 10.1%. The AC50 under setting [1] was 0.461 µM [rising, full curve, poor fit]. Under setting [2], the AC50 was 3.66 µM [rising, single point].

Take `COc1cc(C(=O)N/N=C/c2sc(=O)n(-c3ccccc3)c2Cl)cc(OC)c1OC`: the cell number change is -10.9%. Further, under setting [2], the AC50 is 1.84 µM [rising, full curve, poor fit].

On to `CC(C)CC(NS(=O)(=O)OCC(Cl)(Cl)Cl)c1ccccc1` (stereo unspecified), for which the cell number change was -33.8%. Besides, the AC50 under setting [1] was 32.6 µM [falling, single point].

With `O=C(NCc1ccncc1)C(=O)NCc1ccncc1`, the cell number change was -9.15%. For the same compound, under setting [2], the AC50 is 6.51 µM [falling, single point].

Turning to `Cc1cccc(NS(=O)(=O)c2cc(C(=O)N3CCc4ccccc4C3)ccc2Cl)c1C`, the cell number change was -16%.

Consider `O=C(CCc1nc2ccccc2c(=O)[nH]1)NNC(=O)c1ccc(Cl)cc1`, for which the cell number change came out at 7.02%. Under setting [2], the AC50 was 6.51 µM [rising, single point].

As for `O=S(=O)(c1ccccc1)c1cnc(-c2ccccc2)nc1N1CCCC1`, the cell number change was found to be 16.1%. Besides, under setting [2], the AC50 was 0.651 µM [rising, full curve, poor fit].

With `CC1CCCCN1C(=O)COC(=O)c1ccc2ccccc2n1` (stereo unspecified), the cell number change was 11.5%. Besides, the AC50 under setting [2] is 0.00411 µM [rising, full curve, poor fit].

For the compound `Cc1ccc(S(=O)(=O)C(C#N)c2nc3ccccc3nc2N2CCCC2)cc1C` (stereo unspecified), the AC50 runs as follows: under setting [1], 0.651 µM [rising, single point]; under setting [2], 13 µM [rising, partial curve].

Regarding `CCCCOC(=O)c1ccc(NC(=S)NC(=O)c2ccco2)cc1`, the cell number change is -8.35%. The AC50 under setting [2] is 29.1 µM [falling, single point].

Consider `Cn1c(N)c(C(=O)COC(=O)c2ccccn2)c(=O)n(C)c1=O`, for which the cell number change came to 4.53%. Further, the AC50 under setting [1] is 0.517 µM [rising, single point]. In addition, the half-maximal activity concentration (AC50) under setting [2] was 0.58 µM [rising, single point].

For `COc1ccccc1N1CCN(C2CCCN(C(=O)c3cccc(-c4ccco4)c3)C2)CC1` (stereo unspecified), the cell number change was -8.71%. In addition, the AC50 under setting [2] was 3.26 µM [rising, single point].

Take `Cc1ccc(/C=N/NC(=O)CSc2nc3nc(C)cc(C)n3n2)cc1`: the cell number change was 79.9%.

For the compound `COCCCn1c(=O)c2sccc2n2c(CCCC(=O)N3CCN(c4ccccn4)CC3)nnc12`, the AC50 under setting [2] is 6.51 µM [falling, single point].

For `CC(C)C(=O)Nc1cccc(NC(=O)c2cc3ccccc3o2)c1`, the AC50 is 2.31 µM [rising, partial curve] under setting [1] and 2.31 µM [rising, partial curve] under setting [2].

Turning to `CCO[C@@H]1OC(C(=O)NCc2nc3ccccc3[nH]2)=C[C@H](c2ccc(C(F)(F)F)cc2)[C@H]1CCCO`, the cell number change was -46.5%. Moreover, under setting [1], the AC50 is 29.1 µM [falling, single point]. Moreover, the AC50 under setting [2] was 29.1 µM [falling, single point].

`CCN(CC)C(=O)Oc1ccc2cc(Br)ccc2c1`: the cell number change was 47.5%. Besides, under setting [1], the AC50 is 10.3 µM [rising, partial curve]. Further, the AC50 under setting [2] was 13 µM [rising, partial curve].

As to `O=[N+]([O-])c1ccccc1/C=C/CN1CCN(Cc2ccc3c(c2)OCO3)CC1`, the cell number change was -1.4%. Moreover, the AC50 under setting [2] is 29.1 µM [rising, single point].

As for `O=C(N/N=C/c1ccco1)c1cc(-c2ccc(Cl)cc2)n[nH]1`, the cell number change is -21.6%.

`CN(C(=O)COC(=O)/C=C/c1ccc2ccccc2n1)C1CCS(=O)(=O)C1` (stereo unspecified): the cell number change was determined as 11.2%. The AC50 under setting [1] is 0.731 µM [rising, partial curve, poor fit].

Regarding `CCCCCCOC(=O)/C=C/c1c(C)[nH]c(=O)[nH]c1=O`, the cell number change was 58%. The AC50 under setting [1] is 2.91 µM [rising, full curve]. Besides, the AC50 under setting [2] is 5.8 µM [rising, partial curve].

For the compound `Cc1csc(SCC(=O)N(C)c2c(N)n(Cc3ccccc3)c(=O)[nH]c2=O)n1`, the AC50 under setting [1] is 0.146 µM [rising, single point].

For the compound `Cc1nc(-c2ccc(Cl)cc2)sc1C(=O)NN`, the cell number change is -1.93%. Besides, the concentration at half-maximal activity (AC50) under setting [2] is 0.231 µM [rising, full curve, poor fit].

With `O=C(NNc1nc2ccc(F)cc2s1)c1cccc(F)c1`, the cell number change was 15.7%.

Consider `Cc1ccc(NC(=O)Nc2ccccc2CC[N+](=O)[O-])cc1`, for which the cell number change was -28.9%.

Consider `COC(=O)c1ccc(N)cc1O`, for which the cell number change was found to be 1.86%.

Turning to `CCOc1ccc(NC(=O)NC2CCCCCCC2)cc1`, the cell number change was -17.3%. Further, under setting [2], the AC50 was 29.1 µM [falling, single point].

Regarding `Cc1[nH]c2ccccc2c1C(=O)CSc1ccccc1`, the cell number change was -24%. The AC50 under setting [2] is 29.1 µM [falling, single point].

On to `COc1ccc(-c2cn(Cc3ccc(C(N)=O)cc3)c(-c3ccc(Cl)nc3)n2)cc1`, for which the cell number change was -5.79%. The AC50 under setting [2] is 29.1 µM [rising, single point].

Regarding `O=C(Nc1nnc(-c2ccco2)o1)c1ccc([N+](=O)[O-])s1`, the cell number change is -19.4%. Under setting [2], the AC50 was 6.51 µM [falling, single point].
